Here are results for three molecules from paper PMC2588538, “Structure of Reovirus σ1 in Complex with Its Receptor Junctional Adhesion Molecule-A” (PLoS Pathogens, 2008).

Experiment [1] concerns the target D1 domain of human JAM-A (residues 28–129) with E121A (human) (UniProt Q9Y624). Nature of the experiment: SEC; analytical Superdex 75 PC 3.2/30 (SMART system); 20 mM Hepes pH 7.4 or 20 mM citrate pH 5.0, 100 mM NaCl; both purified. (In general: Size exclusion chromatography separates by hydrodynamic size, large species first.)
The target of experiment [2] is T1, D1 domain of human junctional adhesion molecule-A (hJAM-A D1; residues 28–129) (human) (UniProt Q9Y624).
T1 sequence: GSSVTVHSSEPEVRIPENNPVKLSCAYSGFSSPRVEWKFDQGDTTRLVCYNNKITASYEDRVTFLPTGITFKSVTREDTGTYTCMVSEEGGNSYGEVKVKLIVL
Nature of the experiment: SEC; analytical Superdex 75 PC 3.2/30 (SMART system); 20 mM citrate pH 4.5 or 4.0, 100 mM NaCl; both purified.

Experiment [3] deals with T1, D1 domain of human junctional adhesion molecule-A (hJAM-A D1; residues 28–129) (human). The experiment can be described thus: SEC; analytical Superdex 75 PC 3.2/30 (SMART system); 20 mM Hepes pH 7.4 or 20 mM citrate pH 5.0, 100 mM NaCl; both purified.

Results are given in words; binding and its absence hold for the method and conditions named. Some results given as binding are weak or reduced against the parent protein; the word gives no strength.

Consider “D1 domain of human JAM-A (residues 28–129) with E121A (from UniProt Q9Y624 28-129) (domain or fragment)”, for which, in experiment [1], the binding result is “no binding”. As for “reovirus type 3 Dearing (T3D) σ1 fragment comprising the head domain and one β-spiral of the tail (σ1H; residues 293–455) (from UniProt P03528 293-455) (domain or fragment)”, the binding entry in experiment [2] is “no binding (condition: pH 4.5 or 4.0)”.

B1: D1 domain of human junctional adhesion molecule-A (hJAM-A D1; residues 28–129) (domain or fragment)
chain: T1 sequence
notes: two non-native residues left at the N-terminus after removal of GST, numbered Gly26 and Ser27; human junctional adhesion molecule-A, membrane-distal D1 domain, residues 28-129; Homodimer in solution at neutral pH; also called wt D1; source: E. coli BL21 (DE3) pLysS, purified (GSTrap, on-column thrombin cleavage, SEC); not shown: GST, N-terminal, cleaved
B1: the binding entry in experiment [3] was “binds”.
